Results taken from paper PMC5003356.
For at least one entry, the source does not settle the construct or the ends of the probe. Results from cells or extracts need not show a direct contact. For some of these results: A weaker result is weaker than the reference pair of the same experiment. For some of these results: Where a protein sequence is shown, tags need not be part of it. For some of these results: The direction of at least one scale is not stated here.

Protein sequences, listed by entry. Tags and fused reporters are not part of them. Lines headed by an entry give the natural chain unless they say otherwise; changes in a name come on top. Residues count along the entry.
UniProt P09405, 300-652: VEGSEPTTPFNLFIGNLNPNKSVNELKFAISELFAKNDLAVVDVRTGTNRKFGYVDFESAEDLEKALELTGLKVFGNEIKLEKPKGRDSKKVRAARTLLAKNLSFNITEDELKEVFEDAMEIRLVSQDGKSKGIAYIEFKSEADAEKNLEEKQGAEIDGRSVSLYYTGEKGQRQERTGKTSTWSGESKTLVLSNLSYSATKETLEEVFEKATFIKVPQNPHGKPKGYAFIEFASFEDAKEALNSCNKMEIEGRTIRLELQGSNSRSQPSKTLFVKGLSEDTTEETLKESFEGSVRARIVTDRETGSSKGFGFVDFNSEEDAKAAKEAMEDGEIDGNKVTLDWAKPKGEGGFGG
UniProt Q15233: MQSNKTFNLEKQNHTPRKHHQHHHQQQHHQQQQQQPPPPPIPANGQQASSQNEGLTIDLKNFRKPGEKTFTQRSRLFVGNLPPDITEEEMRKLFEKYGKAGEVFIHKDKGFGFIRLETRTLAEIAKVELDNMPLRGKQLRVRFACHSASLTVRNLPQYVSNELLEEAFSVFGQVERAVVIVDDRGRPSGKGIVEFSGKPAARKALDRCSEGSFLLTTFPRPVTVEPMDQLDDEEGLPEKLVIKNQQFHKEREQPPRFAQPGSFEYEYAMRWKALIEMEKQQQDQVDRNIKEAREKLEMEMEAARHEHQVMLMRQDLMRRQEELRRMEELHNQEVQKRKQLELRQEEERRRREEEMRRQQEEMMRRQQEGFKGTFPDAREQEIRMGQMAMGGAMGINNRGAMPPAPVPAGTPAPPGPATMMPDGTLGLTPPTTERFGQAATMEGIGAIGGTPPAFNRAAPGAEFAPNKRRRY
UniProt P05627, whole entry: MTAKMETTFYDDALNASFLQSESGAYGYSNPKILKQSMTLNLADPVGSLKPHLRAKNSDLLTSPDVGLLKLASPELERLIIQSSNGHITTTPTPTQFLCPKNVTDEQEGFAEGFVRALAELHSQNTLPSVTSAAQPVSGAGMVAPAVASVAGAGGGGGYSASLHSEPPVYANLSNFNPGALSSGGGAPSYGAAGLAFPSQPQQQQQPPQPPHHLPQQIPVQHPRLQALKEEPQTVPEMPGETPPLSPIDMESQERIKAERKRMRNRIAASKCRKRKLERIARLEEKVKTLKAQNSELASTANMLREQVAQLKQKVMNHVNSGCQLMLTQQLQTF

Legend:
RNase H1 NLuc fusion = target: T1, RNase H1 NLuc fusion (UniProt O60930); test: competition BRET; settings: 3-10-3 cEt gap-mer; BRET: 1X binding buffer (0.1 M potassium acetate, 20 mM Tris pH 7.5, 1 mM EDTA, 0.01% NP-40), room temperature, 15 min; protein in a lysate after overexpression; protein details: NLuc (N or C); synthetic backbone
T1 sequence (looked up, limits assumed): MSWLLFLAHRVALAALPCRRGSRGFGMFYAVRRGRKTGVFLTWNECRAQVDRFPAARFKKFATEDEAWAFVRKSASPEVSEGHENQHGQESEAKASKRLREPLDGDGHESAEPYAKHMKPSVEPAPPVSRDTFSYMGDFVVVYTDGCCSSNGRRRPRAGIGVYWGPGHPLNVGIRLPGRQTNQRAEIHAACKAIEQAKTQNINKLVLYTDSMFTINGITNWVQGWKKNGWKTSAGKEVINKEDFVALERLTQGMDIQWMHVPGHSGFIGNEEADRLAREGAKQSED

[1] = target: NCL (RBD 1-4) NLuc fusion (UniProt P09405); test: competition BRET; settings: 3-10-3 cEt gap-mer; BRET: 1X binding buffer (0.1 M potassium acetate, 20 mM Tris pH 7.5, 1 mM EDTA, 0.01% NP-40), room temperature, 15 min; protein in a lysate after overexpression; protein details: NLuc (N or C); synthetic backbone
[2] = target: P54nrb NLuc fusion (Homo sapiens) (UniProt Q15233); test: competition BRET; settings: 3-10-3 cEt gap-mer; BRET: 1X binding buffer (0.1 M potassium acetate, 20 mM Tris pH 7.5, 1 mM EDTA, 0.01% NP-40), room temperature, 15 min; protein in a lysate after overexpression; protein details: NLuc (N or C); synthetic backbone
LRPPRC-NLuc = LRPPRC-NLuc (UniProt P42704); test: competition BRET; settings: 3-10-3 cEt gap-mer; BRET: 1X binding buffer (0.1 M potassium acetate, 20 mM Tris pH 7.5, 1 mM EDTA, 0.01% NP-40), room temperature, 15 min; protein in a lysate after overexpression; protein details: C-terminal NLuc; synthetic backbone
Staufen1 NLuc fusion = target: T2, Staufen1 NLuc fusion (UniProt O95793); test: BRET; settings: range over ssRNA, ssDNA and RNA/DNA; BRET: 1X binding buffer (0.1 M potassium acetate, 20 mM Tris pH 7.5, 1 mM EDTA, 0.01% NP-40), room temperature, 15 min; protein in a lysate after overexpression; label: 3' Alexa Fluor 594
T2 sequence (looked up, limits assumed): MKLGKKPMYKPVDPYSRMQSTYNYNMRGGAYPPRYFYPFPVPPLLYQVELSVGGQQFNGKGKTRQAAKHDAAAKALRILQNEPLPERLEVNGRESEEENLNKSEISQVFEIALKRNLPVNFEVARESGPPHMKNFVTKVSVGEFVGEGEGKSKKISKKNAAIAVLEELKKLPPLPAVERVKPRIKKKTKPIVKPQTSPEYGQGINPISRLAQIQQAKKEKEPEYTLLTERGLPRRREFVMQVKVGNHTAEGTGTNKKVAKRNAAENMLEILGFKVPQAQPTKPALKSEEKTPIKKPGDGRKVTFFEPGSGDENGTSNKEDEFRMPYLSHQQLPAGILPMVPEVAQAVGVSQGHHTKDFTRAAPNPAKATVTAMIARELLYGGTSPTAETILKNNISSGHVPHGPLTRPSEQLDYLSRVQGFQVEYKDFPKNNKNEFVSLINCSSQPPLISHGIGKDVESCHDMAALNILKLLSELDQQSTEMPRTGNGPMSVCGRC

NLuc-cJun = NLuc-cJun (UniProt P05627); test: BRET; settings: digitonin-permeabilized HeLa, 'virtually no binding'; BRET: 1X binding buffer (0.1 M potassium acetate, 20 mM Tris pH 7.5, 1 mM EDTA, 0.01% NP-40), room temperature, 15 min; protein in a lysate after overexpression; protein details: N-terminal NLuc; label: 3' Alexa Fluor 594 on strand 1

Sequence	Kd (RNase H1 NLuc fusion)	Kd [1]	Kd [2]	Kd (LRPPRC-NLuc)	binding result (Staufen1 NLuc fusion)	binding signal (fold lower affinity than ds AP1) (NLuc-cJun)
CCACTGCGCAGGCCAG [660935]	119 nM	12.3 nM	74.8 nM	1.44 nM	–	–
AACATGTCTGCCAGGG [660956]	10.5 nM	2.35 nM	0.71 nM	0.42 nM	–	–
CTTCTAGCCACTGGCT [661010]	113 nM	19 nM	42.7 nM	1.21 nM	–	–
CTGGGAACTGGTCACC [660899]	52.9 nM	3.95 nM	15.4 nM	0.29 nM	–	–
GGGAGGAGGACAGCTC [660908]	1.63 nM	1.64 nM	0.51 nM	0.3 nM	–	–
TCAGTCATGGTATAAA [661115]	51.1 nM	3.01 nM	15.2 nM	0.18 nM	–	–
CUGCUAGCCUCUGGAUUUGA [STAU1 ssRNA]	–	–	–	–	binds more weakly	–
TGAGAAGATCTCCCGG [661103]	25.4 nM	2.25 nM	15.7 nM	0.19 nM	–	–
CGCTTGATGACTTGGCCGGAA (double strand) [AP1-M ds]	–	–	–	–	–	100
GTTAAGAAGGCTGTCC [661073]	149 nM	13.4 nM	95.5 nM	0.16 nM	–	–
